The experiment has as its target soluble p67C (Theileria parva (Muguga)) (UniProt Q4MZ78). Description: SEC; preparative size exclusion chromatography of s-p67C alone; both purified. For orientation: In gel filtration, larger molecules generally elute earlier.

This passage reports binding results from publication PMC9880323.

Results are given in words; binding and its absence hold for the method and conditions named.

Regarding “soluble p67C (from UniProt Q4MZ78 572-651) (domain or fragment)”, the binding result is “no binding”.
